Earlier results as cited in patent publication US6376541B1, “Upregulation of endogenous prostaglandins to lower intraocular pressure” (Alcon Manufacturing, Ltd., priority 1998, dated 2002).
For at least one compound, name, drawing or mass did not settle the structure.

Legend:
[1] = system: cultured trabecular-meshwork cells; conditions: cited from earlier work
[2] = system: cultured monkey trabecular meshwork cells; conditions: cited from earlier work

Compound | effect on PGE2 synthesis [1] | effect on PGE2 synthesis [2]
CC(=O)OCC[N+](C)(C)C [acetylcholine] | stimulate PGE2 synthesis | –
C[C@@H]1C[C@H]2[C@@H]3CCC4=CC(=O)C=C[C@]4(C)[C@@]3(F)[C@@H](O)C[C@]2(C)[C@@]1(O)C(=O)CO [dexamethasone] | – | dose dependent down regulation of PGE2 synthesis
